Measured values as given in PubChem BioAssay AID2685 (National Center for Advancing Translational Sciences (NCATS), 2010).
The other results are listed elsewhere or left out. Shown are side measurements of this screen, not its main read-out; they come without a call. Most of these compounds were active or inconclusive in the main read-out, so they are no random draw. Potencies come from curve fits of mixed quality, noted in brackets.

Test: qHTS Assay for Lipid Storage Modulators in Drosophila S3 Cells;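 on cell number change: cells counted by Cell Tracker Red CMTPX staining in the red channel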
Conditions: BODIPY lipid droplet fluorescence, 18-24 h; for cell number change: measured here: cell count max response, cells fed with added oleic acid
Procedure, shortened: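 Laser-scanning cytometry quantifies lipid droplet accumulation (500–530 nm total intensity; droplet/cell object ratio) in oleic acid-fed (400 uM added) Drosophila S3 cells treated with a concentration series. 20 uM Triacsin C defined 100% inhibition.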

[1] = measured here: lipid fluorescence (Fed channel) AC50, cells fed with added oleic acid
[2] = measured here: cell number channel AC50, cells fed with added oleic acid

SMILES | cell number change | AC50 [1] | AC50 [2]
O=c1cc(-c2ccccc2)n(S(=O)(=O)c2ccccc2)o1 | 15.5% | 29.1 µM [falling, single point] | 
COc1cc(/C=N\n2nnnc2N)ccc1OCc1ccc(F)cc1 | -38.7% | 7.31 µM [falling, partial curve] | 4.61 µM [falling, full curve]
CCN(C(=O)COC(=O)/C=C/c1cnc2ccccc2n1)c1ccccc1 | 7.28% |  | 
COCCCNC(=O)CC1Oc2ccccc2NC1=O (stereo not drawn) | -2.83% | 7.31 µM [falling, partial curve] | 
O=C(Nc1ccc2ccccc2c1)c1ccc(NS(=O)(=O)c2ccc(Br)s2)cc1 | 1.49% |  | 
Cc1cc(C)c2nc(NC(=O)C3CCCO3)sc2c1 (stereo not drawn) |  | 7.31 µM [rising, partial curve] | 2.06 µM [rising, partial curve]
CCc1nn(C(C)C(=O)N2CCN(Cc3ccccc3)CC2)c(=O)c2cc3occc3n12 (stereo not drawn) | -26.8% | 29.1 µM [rising, single point] | 
O=C(CSc1nnc(-c2cccs2)n1-c1ccccc1)c1ccc2c(c1)OCCO2 | 5.03% | 3.26 µM [rising, single point] | 
Cc1n[nH]c(=O)c2c(NC(=O)CSc3nnnn3-c3ccccc3)oc(C)c12 | 65.7% | 29.1 µM [rising, single point] | 29.1 µM [rising, single point]
O=C(Nc1ccccc1)C1C2CCC3C(CCC21)C3(Cl)Cl (stereo not drawn) | 5.34% | 1.84 µM [falling, single point] | 
CN(C(=O)COc1ccccc1)c1nc(-c2ccc(F)cc2)cs1 | -46.8% | 25.9 µM [falling, partial curve, poor fit] | 
CCn1ccnc1C(O)c1cccc(OC)c1OC (stereo not drawn) | 37.5% | 29.1 µM [rising, single point] | 0.206 µM [rising, full curve, poor fit]
COCCNS(=O)(=O)c1ccc(OCC(=O)N2CCc3ccccc3C2)c(Cl)c1 | -30.7% |  | 
N=c1c(C(=O)NCc2ccco2)cc2c(=O)n3ccccc3nc2n1CCc1ccccc1 | -18.3% | 4.11 µM [rising, partial curve] | 
CNC(=O)c1ccsc1NC(=O)c1ccc(Cl)s1 | -4.73% | 13 µM [rising, partial curve] | 
Nc1cccc2c1C(=O)N(C(=O)c1ccc(S(=O)(=O)N3CCCCCC3)cc1)C2=O | 17% | 0.103 µM [falling, full curve, poor fit] | 
CCn1c(SCC(=O)OC)nnc1-c1c[nH]c2ccccc12 | -20.9% | 0.164 µM [falling, full curve, poor fit] | 
CC(=O)c1ccc(N(CC(=O)NCc2ccc3c(c2)OCO3)C(=O)c2csnn2)cc1 | 27.8% | 10.3 µM [rising, partial curve, poor fit] | 
CCCn1c(SCC(=O)N2CCCCC2)nnc1-c1ccco1 | 16.4% | 29.1 µM [rising, single point] | 
Cc1ccc(OCC(=O)N2CCc3ccccc32)c([N+](=O)[O-])n1 | 72.4% |  | 25.9 µM [rising, single point]

SMILES | cell number change | AC50 [1] | AC50 [2]
CCOC(=O)c1cnn(-c2nc3sc4c(c3c(=O)[nH]2)CCCC4)c1N | -8.59% | 0.82 µM [rising, single point] | 
COc1cc2c(cc1NC(=O)CN1CCN(S(=O)(=O)c3ccc(C)cc3)CC1)oc1ccccc12 |  | 1.64 µM [falling, full curve, poor fit] | 0.13 µM [falling, full curve, poor fit]
Brc1ccc(OCc2nnc(SCC3CCCCC3)o2)cc1 | 19.8% | 0.0651 µM [rising, full curve] | 
CC(C)c1ccc(C2(O)C(=O)Nc3cc(Br)ccc32)c(O)c1 (stereo not drawn) | -61% | 29.1 µM [falling, single point] | 29.1 µM [falling, single point]
O=C(NC12CC3CC(CC(C3)C1)C2)C1CCCN1C(=O)NC1CCCCC1 (stereo not drawn) | -99.3% | 23.1 µM [falling, partial curve, poor fit] | 25.9 µM [falling, partial curve, poor fit]
CCC1(C)N=C(c2ccc3c(c2)OCO3)CC(c2ccccc2O)N1 (stereo not drawn) | -60.3% |  | 
C[C@H]1CCC(=O)N([C@H](CSc2ccccc2)Cc2ccccc2)CC1 | 11.7% | 32.6 µM [falling, single point] | 
NS(=O)(=O)c1ccc(CNC(=O)C2(c3ccc(Cl)cc3)CC2)cc1 |  | 20.6 µM [rising, single point] | 
CSc1ncc(C(=O)Nc2ccc(Cl)cc2)c(C)n1 | 81% |  | 
O=C(CCCn1c(=S)[nH]c2ccsc2c1=O)NCCc1ccccc1 | -45.8% |  | 29.1 µM [falling, single point]
COc1ccccc1-c1nnc(SCC(=O)NCc2ccco2)n1N | -29.6% |  | 0.731 µM [rising, single point]
N#CC1=C(N)Oc2n[nH]c(-c3ccncc3)c2C1c1ccsc1 (stereo not drawn) |  |  | 0.461 µM [rising, single point]
COc1ccc(OCc2nnc(SCC(=O)O)n2N)cc1 | 35.8% | 20.6 µM [rising, single point] | 29.1 µM [rising, single point]
CC(C)Sc1nc2ccc(N3C(=O)C4CCCCC4C3=O)cc2s1 (stereo not drawn) | -10.1% | 5.8 µM [falling, full curve] | 
COCCn1c(SCC(=O)Nc2ccc(Cl)c(S(=O)(=O)N(C)C)c2)nc2ccccc21 | 10.5% |  | 
COc1ccc(C(=O)COC(=O)c2cnc(C)cn2)c(OC)c1 | -1.92% | 20.6 µM [rising, partial curve] | 
CC(C)(C#CCN1CCCC1)OCCC#N | -11.3% | 2.06 µM [falling, full curve, poor fit] | 
O=C(CCNS(=O)(=O)c1ccccc1)NCCCSc1ccccc1 |  | 0.259 µM [rising, full curve, poor fit] | 
CCc1nnc2c(N(C)C)nc3ccccc3n12 | -8.32% | 6.51 µM [rising, partial curve] | 
CCC(=O)NCCc1nc2cc(NC(=O)COc3ccccc3)ccc2n1C | 30.7% | 0.13 µM [rising, full curve, poor fit] | 14.6 µM [rising, partial curve, poor fit]

SMILES | cell number change | AC50 [1] | AC50 [2]
COc1ccc(CN2CCSCC2)cc1C |  | 20.6 µM [falling, partial curve] | 
C(=N\Nc1nc(Nc2ccccc2)nc(Nc2ccccc2)n1)/c1cccnc1 | -4.67% | 0.731 µM [rising, full curve] | 1.46 µM [rising, partial curve, poor fit]
COC(=O)Sc1nc(N2CCOCC2)c2c(c1C#N)CC(C)(C)OC2 | 1.54% | 14.6 µM [rising, partial curve, poor fit] | 
CCCCOc1ccc(C(=O)Nc2ccc(OCC(=O)N3CCOCC3)cc2)cc1 | -3.47% | 6.51 µM [rising, single point] | 
Cc1ccc(/C=N/Nc2nc(N3CCOCC3)nc(N3CCOCC3)n2)o1 | 6.61% | 6.51 µM [falling, single point] | 
Cc1ccc(S(=O)(=O)N(c2cccc(C(F)(F)F)c2)C2C=CS(=O)(=O)C2)cc1 (stereo not drawn) | -41.5% | 0.326 µM [falling, full curve, poor fit] | 0.411 µM [falling, full curve, poor fit]
Cc1cc(C)cc(N2C(=O)CC(Sc3nnnn3-c3ccccc3)C2=O)c1 (stereo not drawn) | -87.1% | 29.1 µM [falling, single point] | 29.1 µM [falling, single point]
C=CCN=C1SCC(=O)N1S(=O)(=O)c1ccccc1 | 30.5% | 18.4 µM [rising, single point] | 11.6 µM [rising, single point]
CCOc1ccc(N2C(=O)CC(N3CCN(C(=O)CN4CCCC4)CC3)C2=O)cc1 (stereo not drawn) | 0.14% |  | 
O=C(O)CCC(=O)N1N=C(c2c(-c3ccccc3)c3cc(Cl)ccc3[nH]c2=O)CC1c1cccs1 (stereo not drawn) | -13.6% | 6.51 µM [rising, partial curve, poor fit] | 
CCc1ccc(C(C(=O)NCc2ccc(OC)cc2)N(CCOC)C(=O)Cc2cccs2)cc1 (stereo not drawn) | 14.5% | 0.411 µM [rising, full curve, poor fit] | 
Cc1cccc(C)c1NC(=O)CN(C)C(=O)COc1cccc2c1OC(C)(C)C2 | 34.5% |  | 5.17 µM [rising, full curve, poor fit]
CCOc1ccc(NC(=O)CSc2nccn(-c3ccc4c(c3)OCCO4)c2=O)cc1 | 50% |  | 25.9 µM [rising, single point]
CCc1c(C)nc(SCC(=O)N2CCc3ccccc32)[nH]c1=O | -7.21% | 29.1 µM [falling, single point] | 
S=C1SCN(CCN2CCOCC2)CN1Cc1ccccc1 | -6.56% | 20.6 µM [falling, partial curve] | 
O=C(CC(c1ccccc1)c1ccccc1)NCC1CCCO1 (stereo not drawn) | -18.4% |  | 
Cc1ccc(NC(=O)c2cccc(OCc3c(C)noc3C)c2)cc1S(=O)(=O)Nc1ccccc1Cl | -3.83% | 29.1 µM [rising, single point] | 
S=C(NCc1ccncc1)Nc1cccc(Cl)c1 | 13.1% | 29.1 µM [rising, single point] | 
C=C(C)CSc1nnc2n(N)c(=O)c3ccccc3n12 | 78.9% | 11.6 µM [rising, partial curve] | 7.31 µM [rising, partial curve]
